Measurements as given in the supplement of paper PMC4604168 (melanoma cell lines).
The other results are listed elsewhere or left out. Single values are uncertain, as repeats are few or missing.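 Cells were imaged in 1,536-well plates, and nuclei stained with an antibody against cleaved PARP were counted against all DNA-stained nuclei to give the apoptosis fraction. Screening doses were chosen to leave most cells alive, and resting and induced cleaved-PARP levels differ strongly between cell lines.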

Test system: COLO800
Experiment: cleaved PARP positive nuclei fraction relative to DMSO control; melanoma cells; higher = more apoptosis
Conditions: library dose: low library concentration; 72 h

Structure (SMILES) | cleaved PARP positive nuclei fraction [%]
Cc1cc(N2CCOCC2)cc2[nH]c(-c3c(NC[C@@H](O)c4cccc(Cl)c4)cc[nH]c3=O)nc12 + Cn1cc(/C=C2\C(=O)Nc3cccnc32)c2ccccc21 [GW441756] (first compound 0.2 µM, partner dose 0.4 µM) | 148
Cn1c(Nc2ccc(C(F)(F)F)cc2)nc2cc(Oc3ccnc(-c4ncc(C(F)(F)F)[nH]4)c3)ccc21 + Oc1nc(-c2ccc(C(F)(F)F)cc2)nc2c1CSCC2 [XAV939] (first compound 0.08 µM, partner dose 2 µM) | 93.1
Cn1nnc2c(C(N)=O)ncn2c1=O [temozolomide] + CC(C)CCN1c2nc(Nc3cc(F)c(O)c(F)c3)ncc2N(C)C(=O)C1C [BID1870] (first compound 2 µM, partner dose 0.2 µM) | 94.1
C[C@]1(c2nc3c(C(N)=O)cccc3[nH]2)CCCN1 [Veliparib] + O=C(O)C(=O)Nc1sc2c(c1C(=O)O)CCNC2 [TCS401] (first compound 1.4 µM, partner dose 1.66667 µM) | 86.4
O=C(Nc1cccc(Cl)c1)Nc1ncc(CCNc2ncnc3ccsc23)s1 + COc1cc2ncnc(Nc3ccc(Oc4ccccc4)cc3)c2cc1OC [SrcI1] (first compound 0.0008 µM, partner dose 2 µM) | 56.7
NC(=O)Nc1cc(-c2cccc(F)c2)sc1C(=O)N[C@H]1CCCNC1 + O=c1cc(-c2cccc3c2Sc2ccccc2S3)oc(N2CCOCC2)c1 [KU55933] (first compound 0.02 µM, partner dose 1 µM) | 159
CC(C)(C)c1cnc(CSc2cnc(NC(=O)C3CCNCC3)s2)o1 + N#Cc1c(O)c2c(-c3ccc(-c4ccccc4O)cc3)csc2[nH]c1=O [A769662] (first compound 0.01 µM, partner dose 2 µM) | 119

Test system: COLO829
Experiment: as above
Conditions: library dose: low library concentration; 72 h

Structure (SMILES) | cleaved PARP positive nuclei fraction [%]
C=CCn1c(=O)c2cnc(Nc3ccc(N4CCN(C)CC4)cc3)nc2n1-c1cccc(C(C)(C)O)n1 + O=S(=O)(c1ccccc1)N(CC(F)(F)F)c1ccc(C(O)(C(F)(F)F)C(F)(F)F)cc1 [T0901317] (first compound 0.02 µM, partner dose 1.4 µM) | 34.1
O=C(Nc1cccc(Cl)c1)Nc1ncc(CCNc2ncnc3ccsc23)s1 + COc1cc(N2CCC(N3CCN(C)CC3)CC2)ccc1Nc1ncc(Cl)c(Nc2ccccc2S(=O)(=O)C(C)C)n1 [NVP-TAE684] (first compound 0.0008 µM, partner dose 0.08 µM) | 61.5
C[C@]1(c2nc3c(C(N)=O)cccc3[nH]2)CCCN1 [Veliparib] + COc1cc2ncnc(Nc3ccc(Oc4ccccc4)cc3)c2cc1OC [SrcI1] (first compound 1.4 µM, partner dose 2 µM) | 85
Cn1c(Nc2ccc(C(F)(F)F)cc2)nc2cc(Oc3ccnc(-c4ncc(C(F)(F)F)[nH]4)c3)ccc21 + COc1ccc(COc2ccc(Cc3cnc(N)nc3N)cc2OC)cc1 [GW2580] (first compound 0.08 µM, partner dose 1 µM) | 170
COCC[n+]1c2c(n(Cc3cnccn3)c1C)C(=O)c1ccccc1C2=O + COc1ccc(COc2ccc(Cc3cnc(N)nc3N)cc2OC)cc1 [GW2580] (first compound 0.0004 µM, partner dose 1 µM) | 148
Cc1ccc(NC(=O)c2cccc(N(C)C)c2)cc1NC(=O)c1ccc(O)cc1 + COC(=O)c1sccc1S(=O)(=O)Nc1ccc(Nc2ccccc2)cc1OC [GSK0660] (first compound 2 µM, partner dose 1 µM) | 99.3
COCC[n+]1c2c(n(Cc3cnccn3)c1C)C(=O)c1ccccc1C2=O + CC(C)CCN1c2nc(Nc3cc(F)c(O)c(F)c3)ncc2N(C)C(=O)C1C [BID1870] (first compound 0.0004 µM, partner dose 0.2 µM) | 52.7
CC(C)(C)c1cnc(CSc2cnc(NC(=O)C3CCNCC3)s2)o1 + Cc1cc([N+](=O)[O-])ccc1NS(=O)(=O)c1cc(Cl)ccc1Cl [FH535] (first compound 0.01 µM, partner dose 1 µM) | 88.2
Cc1ccc(NC(=O)c2cccc(N(C)C)c2)cc1NC(=O)c1ccc(O)cc1 + CCCCCCCCCCCC1=C(O)C(=O)C=C(O)C1=O [Embelin] (first compound 2 µM, partner dose 1.2 µM) | 143

Some values from the results shown:
Entry for CC(C)(C)c1cnc(CSc2cnc(NC(=O)C3CCNCC3)s2)o1 + Cc1cc([N+](=O)[O-])ccc1NS(=O)(=O)c1cc(Cl)ccc1Cl [FH535] (first compound 0.01 µM, partner dose 1 µM) under cleaved PARP positive nuclei fraction [%]: 88.2
Entry for C[C@]1(c2nc3c(C(N)=O)cccc3[nH]2)CCCN1 [Veliparib] + COc1cc2ncnc(Nc3ccc(Oc4ccccc4)cc3)c2cc1OC [SrcI1] (first compound 1.4 µM, partner dose 2 µM) under cleaved PARP positive nuclei fraction [%]: 85
